# Results of single-concentration screens

By UniProt entry, the sequences of proteins in these tests, tags left out. Residues count along the entry.
UniProt Q8IDJ8, 1-583: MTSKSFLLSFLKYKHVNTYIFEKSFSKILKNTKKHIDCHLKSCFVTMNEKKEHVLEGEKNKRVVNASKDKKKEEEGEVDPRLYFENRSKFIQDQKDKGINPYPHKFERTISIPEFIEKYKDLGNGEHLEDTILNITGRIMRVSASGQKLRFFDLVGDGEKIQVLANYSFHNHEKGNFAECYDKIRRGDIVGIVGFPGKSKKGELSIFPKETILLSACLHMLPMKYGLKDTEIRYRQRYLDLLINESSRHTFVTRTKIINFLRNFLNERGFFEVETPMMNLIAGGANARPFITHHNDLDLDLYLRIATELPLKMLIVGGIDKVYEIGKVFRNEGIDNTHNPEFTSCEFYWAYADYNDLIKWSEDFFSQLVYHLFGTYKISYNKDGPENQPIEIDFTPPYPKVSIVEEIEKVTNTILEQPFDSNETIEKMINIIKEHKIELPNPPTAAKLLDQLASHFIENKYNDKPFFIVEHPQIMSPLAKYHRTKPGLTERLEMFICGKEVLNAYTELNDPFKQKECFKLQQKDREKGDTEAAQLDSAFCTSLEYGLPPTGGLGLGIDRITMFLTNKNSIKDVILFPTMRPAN

Source: ChEMBL document CHEMBL3988442, “University of Dundee, Small-Polar-MMV Screening Library” (2021).

Values are the deposited “Percent Effect”, in %.
The record does not define 0% and 100%; most values in the screen are far below 50% and negative numbers occur (in some assays of this library far below -100).
Compounds were drawn at random from those tested, without regard to their results.
Two or more numbers in one place are separate tests of the same structure; such repeats can differ widely.
A dash means the value is not listed here; it may have been measured.

Toxoplasma: 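Assay of Toxoplasma gondii numbers, read through their beta-galactosidase reporter with a colour substrate. Concentration: 10 µM. The record gives no direction; the compounds picked for IC50 retests had high values, so higher reads as fewer parasites. About 67,000 compounds were tested under these conditions; 0.38% (about 260) showed 50% or more at least once.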
T. brucei: 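Whole-parasite assay of Trypanosoma brucei over 72 hours; the read-out is not stated. Concentration: 30 µM. Higher reads as stronger inhibition (inferred: compounds with an IC50 in retests scored well above the rest). Values scatter widely below zero; nearly all retest evidence comes from the higher of the two concentrations used. Of about 64,000 compounds tested this way, about 940 (1.5%) reached 50% or more in at least one test.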
Leishmania in macrophages: 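Cell assay of Leishmania donovani living inside macrophages; the read-out is not stated. Tested at 30 µM. Higher reads as stronger inhibition (inferred: compounds with an IC50 in retests scored well above the rest). About 69,000 compounds were tested under these conditions; 1.5% (about 1,000) showed 50% or more at least once.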
PfKRS1: 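Enzyme assay of the cytosolic lysyl-tRNA synthetase in 384-well plates, read by luminescence. Target: Lysine-tRNA ligase, Plasmodium falciparum 3D7 (UniProt Q8IDJ8). Concentration: 30 µM. Direction is inferred from only a few compounds that gave an IC50; most scored high, so higher reads as stronger inhibition. Size under these conditions: about 69,000 compounds, about 49 of them at 50% or above in at least one test.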

compound	Toxoplasma	T. brucei	Leishmania in macrophages	PfKRS1
O=S(=O)(C1CC1)N1CCO[C@H]2[C@@H](Oc3cccnc3)CC[C@@H]21	-	-	-	-1.169
Cn1cc(CN2CCc3nc4sccc4c(=O)n3CC2)cn1	-4.316	-10.84	-24.46	0.4796
O=C(Cn1ccc(=O)cc1)NCc1ccc2sccc2c1	3.874	-2.284	17.09	10.42
CS(=O)(=O)N1CCc2[nH]nc(Cc3cccs3)c2C1	2.249	-7.511	-7.012	3.112
COC(=O)CCC(=O)NC1CCCc2cc(OC(F)F)ccc21 (stereo not given)	-16.9	-11.5	9.139	0.5955
[H][C@@]12CS(=O)(=O)C[C@]1([H])N(Cc1ccccc1F)CCN2C(=O)C1CCC1	-3.797	-38.5	16.76	-
Cn1cc(C2CC(=O)NC23CCN(C(=O)NC2CC2)CC3)cn1 (stereo not given)	2.966	-12.28	8.047	1.25
CCCSc1ncccc1C(=O)NCc1ccc(S(N)(=O)=O)cc1	27.99	-21.38	42.32	6.05
NC(=O)c1csc(C(=O)N2CCCC(n3ccnc3)C2)c1 (stereo not given)	2.868	12.22	14.61	2.903
CCc1ccc(CN(C/C=C/c2ccccc2)CCOC)nc1	7.005	0.4488	32.63	3.365
CCc1ccc(C(COC)NC(=O)c2ccsc2)o1 (stereo not given)	-33.84	-	-29.88	3.064
COc1ccc(Cl)cc1CC(=O)N1CCN(CCO)CC1	-2.892	-8.134	-7.301	-7.377
CCc1noc(C)c1C(=O)N1CCC2(CCCN(CC(C)(C)C)C2=O)C1 (stereo not given)	6.197	-21.2	6.727	1.753
Cc1cnc(CN2CCC(N(C)Cc3nnc(C)n3C)C2)cn1 (stereo not given)	-6.551	-12.12	10.3	2.57
CC(=O)N(Cc1noc(C2CC2)n1)C1CCN(Cc2ccccn2)C1 (stereo not given)	-15.94	-15.89	44.75	1.195
CCc1cc(CNC(=O)N2CCC(Cc3cnn(C)c3)C2)on1 (stereo not given)	-9.479	-	0.3823	1.801
Cc1cn(-c2ccccc2)nc1NS(=O)(=O)c1ccc(C(=O)O)cc1F	-24.82	-17.02	29.21	5.966
Cc1ccc(N2CCCC3(COCCN(c4cnccn4)C3)C2)nn1 (stereo not given)	5.364	-31.71	6.839	5.519
O=C(O)C(F)(F)F.[H][C@@]12CCN(CC3CCOCC3)C[C@]1([H])O[C@H](C(=O)N1CCC(C)CC1)C2	-5.26	-26.73	9.388	-
Cc1cc(C(=O)N2CCCC(Cn3cc(C4CC4)nn3)C2)nc(C)n1 (stereo not given)	4.218	-92.61	-1.612	-0.428
CCc1ccc(CN2CCC3(CC2)CN(c2cnn(C)c2)C(=O)CO3)o1.O=C(O)C(F)(F)F.O=C(O)C(F)(F)F	-5.465	-6.9	19.14	-
Cc1ncccc1CNCC1COC2(CCCCC2)O1 (stereo not given)	-5.81	-0.0506	19.04	-0.3779
Cc1occc1C(=O)N1Cc2nccn2CC(CN2CCOCC2)C1.O=C(O)C(F)(F)F (stereo not given)	-6.021	-17.4	17.35	-
O=C(C1CCOCC1)N1C[C@@H]2CN(Cc3ccsc3)CCO[C@@H]2C1	-	-	-	-0.6252
CC(C)N1[C@H](Cn2cncn2)C[C@@H]2CNCC[C@@H]21	-	-	-	-0.5371
Cc1ccc(-c2nc(CCNCc3ccncc3)co2)cc1	-1.633	-8.169	13.31	2.323
CC(C)N(CC(=O)Nc1ccc(Br)cc1Cl)Cc1cccnc1	-2.294	-36.32	0.9398	5.611
COc1ccccc1COCC(O)CN(C)Cc1cccc(Cl)c1 (stereo not given)	4.035	-1.362	1.083 & 19.64	5.243
Cc1ncc2c(n1)CCCC2NC(=O)c1cnn(Cc2ccccc2)c1 (stereo not given)	-12.25	12.16	-29.9	1.464
COc1ccc(CN(C)Cn2cc(C)n(-c3cc(C)on3)c2=O)cc1	8.138	-	11.99	-0.2368
Cc1cccc(-c2nnc(C(C)NCCn3cc(C)cn3)o2)c1 (stereo not given)	-7.77	-15.97	1.651	0.8682
COc1ccccc1C(=O)N1CCOCC1c1c(C)n[nH]c1C (stereo not given)	1.721	0.8179	3.742	1.921
CN(CC1(C)COC1)C(=O)c1cc(-c2ccnn2C)nc2ccccc12	-8.015	-8.947	-4.258	0.3844
Cc1c(-c2ccccc2)ncn1CC(c1cccnc1)N1CCOCC1 (stereo not given)	2.791	1.749	33.88	1.283
c1csc(CN(Cc2ccsc2)CC2CCCO2)n1 (stereo not given)	-1.863	-35.58	-25.72	0.4757
c1ccc(-c2noc(CN3CCOC(Cn4cccn4)C3)n2)nc1 (stereo not given)	4.093	-13.62	21.03	0.57
NC(=O)c1nc(COc2ccc3c(c2)OCO3)no1	-3.347	-9.364	9.423	3.743
COc1cccc(C(=O)N2C[C@@H](c3ccccc3)[C@@H]3NCCCC[C@@H]32)c1	-	-	-	0.7901
OCCCNc1cccc(COC2CCCCC2)c1	-0.4244	2.822	-17.37	-5.281
CC(C)c1noc(C(C)S(=O)(=O)CC(=O)N2CCCC2)n1 (stereo not given)	6.738	-5.279	27.46	4.565
CCc1nnc(SC2CCCN(c3cccc(F)c3)C2=O)n1C (stereo not given)	-9.894	-37.32	-31.06 & 6.451	2.4
CCn1c(SC)nnc1C1CCN(C(=O)N2CCCC2)CC1	6.641	8.489	17.22	-0.8115
Cc1noc2nc(C3CCN(CC4CCCCC4)CC3)cc(C(F)F)c12.Cl	16.88	30.15	-12.24 & -1.347	-
CCN(CC)C(=O)CCNC(=O)Cc1nc(-c2ccco2)oc1C	-2.863	-8.468	25.49	-1.357
O=C(c1ccco1)N1CCC(n2cc(-c3ccsc3)nn2)CC1	-	-12.64	36.93	3.332
COc1ccccc1N1CCN(C(=O)CCCS(N)(=O)=O)C(C)C1 (stereo not given)	-14.19	-	6.725	5.37
CC(C)c1cc(C(=O)NCCN2CCCCC2CO)on1 (stereo not given)	18.51	-13.15	30.92	9.306
CCO[C@H]1CCN(S(=O)(=O)c2cn(C)cn2)[C@H]1Cc1ccccc1	-	-	-	1.01
CC(=O)N1[C@H](Cn2cncn2)C[C@@H]2CN(Cc3cccnc3)CC[C@@H]21	-	-	-	7.044
CN(Cc1ccc(CCC(C)(C)O)cc1)Cc1cccc(O)c1	2.767	-1.692	16.63	9.891
CCc1nc(CN(C)C2CCN(CCCOc3ccccc3)C2)no1 (stereo not given)	-0.6344	-	13.03	-2.64
CCOc1cc(F)ccc1NC(=O)NCC(c1cnn(C)c1)N(C)C (stereo not given)	-3.001	13.37	7.83	8.734
CCn1cc(S(=O)(=O)NC(CO)Cc2ccccc2)cn1 (stereo not given)	10.71	-12.64	-1.867	3.242
COc1ccccc1CC(C)CC(=O)O (stereo not given)	7.687	-9.388	41.22	3.183
Cc1ccc2c(n1)N(C)CCN(Cc1ccco1)C2	-	-	-	2.261
CNC(=O)c1nc2c(s1)CCN(C(=O)Cc1ccc(OC)cc1)CC2	-2.959	-	-16.38	-3.574
CNC(=O)C1Cn2ccnc2C2(CCN(Cc3csc(C)n3)CC2)O1 (stereo not given)	-0.7887	-68.86	19.59	-0.2747
O=C(Cn1cc(C2CC2)nn1)N(Cc1cccs1)CC1CCCO1 (stereo not given)	-2.955	5.063	-5.761	0.3359
CN(C)CCn1ccnc1C1CCN(C(=O)CCC(F)(F)F)CC1	-7.195	-13.15	-3.271	7.38
Cc1c(F)cc(C(=O)O)cc1S(=O)(=O)Nc1cccc(C(F)F)c1	-13.91	-18.98	18.08	5.087
COc1ccccc1N1CCN(CC(=O)NC(C)c2ccco2)CC1 (stereo not given)	25.93	-	17.02	1.532
CN(Cc1nnc2n1CCC2)C(=O)Cc1ccc2c(c1)OCCO2	1.206	7.429	21.49	1.613
C[C@@H]1CN(C(=O)c2nc3ccc(Cl)cn3c2-c2ncc[nH]2)C[C@H](C)O1	-	-11.79	-2.731	12.97
O=C(CCN1CCCC(CO)(CC2CC2)C1)NC1CCCCC1 (stereo not given)	5.448	-4.081	26.28	1.95
O=C(C1CCC2(CCN(CC3CC3)CC2)O1)N1CCCC1 (stereo not given)	-	-	-	7.916

For reference, 7 entries once more:

compound	Toxoplasma	T. brucei	Leishmania in macrophages	PfKRS1
O=C(C1CCOCC1)N1C[C@@H]2CN(Cc3ccsc3)CCO[C@@H]2C1	-	-	-	-0.6252
COc1cccc(C(=O)N2C[C@@H](c3ccccc3)[C@@H]3NCCCC[C@@H]32)c1	-	-	-	0.7901
COc1ccc(CN(C)Cn2cc(C)n(-c3cc(C)on3)c2=O)cc1	8.138	-	11.99	-0.2368
CN(Cc1ccc(CCC(C)(C)O)cc1)Cc1cccc(O)c1	2.767	-1.692	16.63	9.891
O=C(Cn1ccc(=O)cc1)NCc1ccc2sccc2c1	3.874	-2.284	17.09	10.42
CCn1cc(S(=O)(=O)NC(CO)Cc2ccccc2)cn1 (stereo not given)	10.71	-12.64	-1.867	3.242
CCCSc1ncccc1C(=O)NCc1ccc(S(N)(=O)=O)cc1	27.99	-21.38	42.32	6.05